From patent publication US12209143B2 (The University of Chicago, priority 2019, dated 2025)

Assay: general procedure: Fmoc solid-phase peptide synthesis; HCTU/DIPEA
Conditions: cyclisation step, determined by LC-MS

In the case of Ac-SCFGGRK(mal)DRIGAQC(hex)GLGCNSF, the cyclisation yield is reported as >55%.
